4 substances from paper PMC5942373 (Beilstein Journal of Organic Chemistry, 2018) can be followed below.

A short description of this data set: general procedure: Fmoc solid-phase peptide synthesis; Rink-Amide MBHA resin; DIC/HOBt. As to conditions: whole synthesis, overall, on starting amount and capacity of the resin.

HELM strings list residues between dots; [ac] is acetyl, [am] amide, other brackets name non-standard units.

In turn, “PEPTIDE1{[Dau_Aoa].G.F.L.G.K.[am]}|PEPTIDE2{S.N.G.R.E.G.G}$PEPTIDE1,PEPTIDE2,6:R3-7:R2|PEPTIDE2,PEPTIDE2,1:R1-5:R3$$$V2.0” registered an isolated yield of 1.8%.

Dau=Aoa-GFLGK(c[CONH-PNGRE]-GG)-NH2 came in with an isolated yield of 6.2%. “PEPTIDE1{[Dau_Aoa].G.F.L.G.K.[am]}|PEPTIDE2{[Nle].N.G.R.E.G.G}$PEPTIDE1,PEPTIDE2,6:R3-7:R2|PEPTIDE2,PEPTIDE2,1:R1-5:R3$$$V2.0” showed an isolated yield of 10.6%.

Turning to “PEPTIDE1{[Dau_Aoa].G.F.L.G.K.[am]}|PEPTIDE2{A.N.G.R.E.G.G}$PEPTIDE1,PEPTIDE2,6:R3-7:R2|PEPTIDE2,PEPTIDE2,1:R1-5:R3$$$V2.0”, the isolated yield is 2.2%.
